Laboratory results published in patent US20150202315A1.
Results are given in words; binding and its absence hold for the method and conditions named. Some results given as binding are weak or reduced against the parent protein; the word gives no strength.

Chains of the proteins cited; added tags and fusions are not shown. Residues count along the entry.
UniProt P06733, residues 2-434: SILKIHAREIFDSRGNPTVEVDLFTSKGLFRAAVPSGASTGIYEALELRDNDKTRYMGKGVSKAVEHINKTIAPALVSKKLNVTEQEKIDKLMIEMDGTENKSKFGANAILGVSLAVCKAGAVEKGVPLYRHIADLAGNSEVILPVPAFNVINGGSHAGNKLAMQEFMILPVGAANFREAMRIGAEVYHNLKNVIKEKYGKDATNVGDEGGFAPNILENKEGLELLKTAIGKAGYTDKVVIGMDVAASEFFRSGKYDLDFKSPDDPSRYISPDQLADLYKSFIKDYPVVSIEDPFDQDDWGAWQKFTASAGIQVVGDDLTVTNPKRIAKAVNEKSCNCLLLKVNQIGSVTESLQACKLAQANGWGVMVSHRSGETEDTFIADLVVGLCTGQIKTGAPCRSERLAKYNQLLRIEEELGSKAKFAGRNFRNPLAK

Assays:
[1] = target: alpha-enolase (ENO1) on the plasma membrane of HCT116 cells (human) (UniProt P06733); experiment: summary of the affinity cross-linking and LC/MS/MS identification
[2] = target: alpha-enolase (ENO1) on the plasma membrane of HCT116 cells (human) (UniProt P06733); experiment: affinity cross-linking (DTSSP) on intact HCT116 cells, streptavidin pull-down, SDS-PAGE, LC/MS/MS

- binding [1]: binds
- binding [2]: binds
B1: biotinylated pHCT74 peptide (peptide)
peptide: SSMDIVLRAPLMGGG
modifications: C-terminal biotin
